# From patent US20100160225A1
# No constants are given. Whether binding was seen depends on the method and setting. Some entries that bind do so weakly or less than the wild type.
# T1: GDF-11 (UniProt O95390)
# T1 sequence (looked up): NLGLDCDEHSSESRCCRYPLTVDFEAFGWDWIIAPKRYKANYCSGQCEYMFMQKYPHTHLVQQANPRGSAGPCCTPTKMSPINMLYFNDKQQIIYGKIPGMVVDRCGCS
# What was measured:
# GDF-11 [1] = target: T1, GDF-11; assay: BiaCore; GDF-11 amine-coupled to CM5 chip, conditioned medium as analyte
# GDF-11 [2] = target: T1, GDF-11; assay: Biacore; GDF-11 immobilized on chip, conditioned medium of cells expressing the construct passed over
binding (GDF-11 [1]),binding (GDF-11 [2]),Binder
binds,binds,Lefty 28 (28 kDa short form of human Lefty-A) (ligand) LSPRSAQARVTVEWLRVRDDGSNRTSLIDSRLVSVHESGWKAFDVTEAVNFWQQLSRPRQPLLLQVSVQREHLGPLASGAHKLVRFASQGAPAGLGEPQLELHTLDLRDYGAQGDCDPEAPMTEGTRCCRQEMYIDLQGMKWAKNWVLEPPGFLAYECVGTCQQPPEALAFNWPFLGPRQCIASETASLPMIVSIKEGGRTRPQVVSLPNMRVQKCSCASDGALVPRRLQP
binds,binds,Lefty 34 (34 kDa long form of human Lefty-A with R->G alteration of the second RXXR cleavage site) (ligand) FSQSFREVAGRFLASEASTHLLVFGMEQRLPPNSELVQAVLRLFQEPVPKAALHGHGRLSPRSAQARVTVEWLRVRDDGSNRTSLIDSRLVSVHESGWKAFDVTEAVNFWQQLSRPRQPLLLQVSVQREHLGPLASGAHKLVRFASQGAPAGLGEPQLELHTLDLRDYGAQGDCDPEAPMTEGTRCCRQEMYIDLQGMKWAKNWVLEPPGFLAYECVGTCQQPPEALAFNWPFLGPRQCIASETASLPMIVSIKEGGRTRPQVVSLPNMRVQKCSCASDGALVPRRLQP
